Experimental data reported in paper PMC4678830.
No constants are given. Whether binding was seen depends on the method and setting.

Columns and labels:
[1] = biological target: SNM1A core MBL-β-CASP domain (aa 676–1040) (human) (UniProt Q6PJP8); assay: SEC; Superdex S200 HR 16/60 in GF buffer (10 mM HEPES, pH 7.5, 300 mM NaCl, 0.5 mM TCEP, 5% glycerol), 1.2 ml/min; last step of the purification; both purified
[2] = biological target: SNM1B core MBL-β-CASP domain (aa 1–335), S330F (human) (UniProt Q9H816); assay: as above

| Binder | binding [1] | binding [2] |
| --- | --- | --- |
| SNM1A core MBL-β-CASP domain (aa 676–1040) (domain or fragment, UniProt Q6PJP8 676-1040) SMAHGGLQRGNKKIPESSNVGGSRKKTCPFYKKIPGTGFTVDAFQYGVVEGCTAYFLTHFHSDHYAGLSKHFTFPVYCSEITGNLLKNKLHVQEQYIHPLPLDTECIVNGVKVVLLDANHCPGAVMILFYLPNGTVILHTGDFRADPSMERSLLADQKVHMLYLDTTYCSPEYTFPSQQEVIRFAINTAFEAVTLNPHALVVCGTYSIGKEKVFLAIADVLGSKVGMSQEKYKTLQCLNIPEINSLITTDMCSSLVHLLPMMQINFKGLQSHLKKCGGKYNQILAFRPTGWTHSNKFTRIADVIPQTKGNISIYGIPYSEHSSYLEMKRFVQWLKPQKIIPTVNVGTWKSRSTMEKYFREWKLEAGY | no binding |  |
| SNM1B core MBL-β-CASP domain (aa 1–335), S330F (domain or fragment, UniProt Q9H816 1-335) SMMNGVLIPHTPIAVDFWSLRRAGTARLFFLSHMHSDHTVGLSSTWARPLYCSPITAHLLHRHLQVSKQWIQALEVGESHVLPLDEIGQETMTVTLLDANHCPGSVMFLFEGYFGTILYTGDFRYTPSMLKEPALTLGKQIHTLYLDNTNCNPALVLPSRQEAAHQIVQLIRKHPQHNIKIGLYSLGKESLLEQLALEFQTWVVLSPRRLELVQLLGLADVFTVEEKAGRIHAVDHMEICHSNMLRWNQTHPTIAILPTSRKIHSSHPDIHVIPYSDHSSYSELRAFVAALKPCQVVPIVSRRPCGGFQDSLSPRISVPLIPDSVQQYMSSFSRKPS |  | no binding |
